In paper PMC10700192:
Results are given in words; binding and its absence hold for the method and conditions named. In cells and extracts the contact can be indirect. Some results given as binding are weak or reduced against the parent protein; the word gives no strength.

By UniProt entry, the sequences of proteins in these tests, tags left out. Residues count along the entry.
UniProt Q6P3S6: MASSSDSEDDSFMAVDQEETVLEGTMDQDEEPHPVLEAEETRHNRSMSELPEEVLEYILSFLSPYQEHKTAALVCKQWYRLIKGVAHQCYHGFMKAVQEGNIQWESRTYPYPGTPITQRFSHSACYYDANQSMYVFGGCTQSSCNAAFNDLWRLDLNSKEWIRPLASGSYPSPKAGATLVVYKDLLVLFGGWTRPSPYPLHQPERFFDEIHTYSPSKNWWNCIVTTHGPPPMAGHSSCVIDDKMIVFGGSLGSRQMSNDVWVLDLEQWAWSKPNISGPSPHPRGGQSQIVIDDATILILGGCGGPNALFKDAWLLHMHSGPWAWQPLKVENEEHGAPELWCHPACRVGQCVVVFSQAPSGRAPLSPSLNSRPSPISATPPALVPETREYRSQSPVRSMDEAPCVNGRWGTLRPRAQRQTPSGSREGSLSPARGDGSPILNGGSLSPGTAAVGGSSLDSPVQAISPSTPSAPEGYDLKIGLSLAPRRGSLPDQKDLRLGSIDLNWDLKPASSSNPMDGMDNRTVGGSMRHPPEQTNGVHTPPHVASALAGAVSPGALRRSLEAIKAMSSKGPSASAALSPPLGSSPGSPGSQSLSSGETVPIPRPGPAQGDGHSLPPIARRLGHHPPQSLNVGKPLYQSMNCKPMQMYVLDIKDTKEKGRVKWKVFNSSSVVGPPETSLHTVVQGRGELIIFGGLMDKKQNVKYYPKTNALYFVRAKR
UniProt Q9NZQ7, residues 19-290: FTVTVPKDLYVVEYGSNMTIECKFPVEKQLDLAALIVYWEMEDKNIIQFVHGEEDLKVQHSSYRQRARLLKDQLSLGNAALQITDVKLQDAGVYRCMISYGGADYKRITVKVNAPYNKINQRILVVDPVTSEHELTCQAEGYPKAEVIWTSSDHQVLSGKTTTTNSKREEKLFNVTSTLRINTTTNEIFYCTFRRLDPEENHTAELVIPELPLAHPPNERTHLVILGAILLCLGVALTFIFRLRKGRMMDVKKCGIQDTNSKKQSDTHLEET

What was measured:
GST‐ING4 (PEBG) (human) = GST‐ING4 (PEBG) (human) (UniProt Q9UNL4); experiment: pull-down; GST pull-down from lysates of H520 cells transfected with PEBG (GST), GST-ING4, GST-ING4/ΔPHD or GST-F178A; Western blot
[1] = molecular target: JFK E3 ubiquitin ligase (human (endogenous in H520)) (UniProt Q6P3S6); experiment: co-IP; lysates of H520 cells (WT or CK2-/-) transfected with vector (pcDNA3), Flag-ING4 or Flag-S150A for 48 h; immunoprecipitation and Western blot
[2] = molecular target: PD‐L1 (programmed death ligand 1) (human (endogenous in H520)) (UniProt Q9NZQ7); experiment: as above
[3] = molecular target: JFK E3 ubiquitin ligase (human (endogenous in H520)) (UniProt Q6P3S6); experiment: co-IP; endogenous proteins in H520 cell lysates (WT or CK2-/- cells; untreated or TBB 10 µM for 0, 0.5 and 2 h); lysis buffer 50 mM TrisHCl pH7.4, 150 mM NaCl, 2 mM EDTA, 1% NP-40, 0.1% SDS; primary antibody overnight at 4 °C, protein A/G magnetic beads; Western blot
[4] = molecular target: PD‐L1 (programmed death ligand 1) (human (endogenous in H520)) (UniProt Q9NZQ7); experiment: as above
his‐PD‐L1 (human) = his‐PD‐L1 (human) (UniProt Q9NZQ7); experiment: pull-down; Ni-NTA pull-down from lysates of H520 cells transfected with vector, his-PD-L1 or his-PD-L1/ΔC for 48 h; Western blot

| binding [1] | Substance | binding [2] | also measured |
| --- | --- | --- | --- |
| – | PD‐L1 (programmed death ligand 1) (from UniProt Q9NZQ7 19-290) | – | binding (GST‐ING4 (PEBG) (human)): binds |
| binds | Flag‐ING4 (from UniProt Q9UNL4 1-249) | binds | – |
| binds | Flag‐ING4/S150A (from UniProt Q9UNL4 1-249) | binds | – |
| – | ING4 (inhibitor of growth 4) (from UniProt Q9UNL4 1-249) | – | binding [3]: binds; binding [4]: binds; binding (his‐PD‐L1 (human)): binds |
